Assay [1] deals with LexA DBD-ERβ LBD (264–510) (UniProt Q92731). The assay is described as follows: two-hybrid; LexA DBD-ER LBD bait and VP16 AD-tSRC1 prey in S. cerevisiae L40; β-galactosidase (ONPG, Miller units) after overnight (~20 h) culture at 30 °C with 17β-estradiol, genistein, (S)-equol, 3′HE or 6HE; normalised to 10 nM E2.
The target is the same in assay [2]. Description: condition: only with 5HE (10^–8∼10^–3 M) as the added ligand; two-hybrid; the same two-hybrid system with 5-hydroxy-(S)-equol (5HE, 10^–8∼10^–3 M) as the added compound.

By UniProt entry, the sequences of proteins in these tests, tags left out. Where a name states a change or a piece, a line headed by the entry shows the natural chain unless it says otherwise. Residues count along the entry.
UniProt Q92731, residues 264-510: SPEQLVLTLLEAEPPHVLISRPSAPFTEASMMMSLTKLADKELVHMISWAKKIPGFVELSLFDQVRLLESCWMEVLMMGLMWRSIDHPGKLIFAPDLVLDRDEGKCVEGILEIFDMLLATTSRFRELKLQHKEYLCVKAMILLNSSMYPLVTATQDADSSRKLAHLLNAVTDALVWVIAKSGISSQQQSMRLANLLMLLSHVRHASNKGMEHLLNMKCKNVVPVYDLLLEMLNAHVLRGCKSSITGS
UniProt Q15788, residues 613-773: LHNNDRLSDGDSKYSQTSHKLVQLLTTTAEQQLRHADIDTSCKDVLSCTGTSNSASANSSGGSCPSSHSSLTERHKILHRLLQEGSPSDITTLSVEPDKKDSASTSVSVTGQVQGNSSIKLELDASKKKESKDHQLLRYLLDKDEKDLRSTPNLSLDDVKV

No constants are given. Whether binding was seen depends on the method and setting. Some results given as binding are weak or reduced against the parent protein; the word gives no strength.

On to “VP16 activator domain (AD)-(Gly4Ser)2 linker-truncated steroid receptor coactivator 1 (tSRC1) (613–773) (from UniProt Q15788 613-773) (domain or fragment)”, for which the values for the binding result in assay [1] and in assay [2] were “binds” and “no binding”, respectively.

Source of the values: PMC8987157, “Regioselective One-Pot Synthesis of Hydroxy-(S)-Equols Using Isoflavonoid Reductases and Monooxygenases and Evaluation of the Hydroxyequol Derivatives as Selective Estrogen Receptor Modulators and Antioxidants” (Frontiers in Bioengineering and Biotechnology, 2022).
